The list shows a part of the results.
Experiments:
Assay in all cases: log2 fold change, soluble protein after heating vs DMSO (PISA); higher = thermal stabilisation; K562 lysate, 10 uM; active = over 0.2 and 3.5 SD of the protein, either way, in both replicates (recomputed)
[1] = compound: CCCS(=O)(=O)Nc1ccc(F)c(C(=O)c2c[nH]c3ncc(-c4ccc(Cl)cc4)cc23)c1F [vemurafenib]
Method in brief: (§1)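 Soluble protein was defined as the supernatant remaining after 21,000xg for 90 min, following pooling of heated aliquots and adjustment to 0.5% NP-40 at 4°C. Before that, crude K562 extract at 1 mg/mL protein in PBS pH 7.4 with 1 mM MgCl2 was treated with 10 μM compound for 30 min and heated for 3 min across 48°C-58°C. Quantification used TMTpro 16plex LC-MS/MS with channel sums equalised, and values are log-two fold changes in thermal stability relative to solvent controls from duplicates.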

Protein sequences, listed by entry. Tags and fused reporters are not part of them. Lines headed by an entry give the natural chain unless they say otherwise; changes in a name come on top.
UniProt Q9BRJ7: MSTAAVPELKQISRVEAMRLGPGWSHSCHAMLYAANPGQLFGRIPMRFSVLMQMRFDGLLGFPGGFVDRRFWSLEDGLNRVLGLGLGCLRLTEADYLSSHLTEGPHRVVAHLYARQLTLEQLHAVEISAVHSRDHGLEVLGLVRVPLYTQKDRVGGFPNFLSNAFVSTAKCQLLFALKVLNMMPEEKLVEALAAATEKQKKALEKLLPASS
UniProt Q8WUM0: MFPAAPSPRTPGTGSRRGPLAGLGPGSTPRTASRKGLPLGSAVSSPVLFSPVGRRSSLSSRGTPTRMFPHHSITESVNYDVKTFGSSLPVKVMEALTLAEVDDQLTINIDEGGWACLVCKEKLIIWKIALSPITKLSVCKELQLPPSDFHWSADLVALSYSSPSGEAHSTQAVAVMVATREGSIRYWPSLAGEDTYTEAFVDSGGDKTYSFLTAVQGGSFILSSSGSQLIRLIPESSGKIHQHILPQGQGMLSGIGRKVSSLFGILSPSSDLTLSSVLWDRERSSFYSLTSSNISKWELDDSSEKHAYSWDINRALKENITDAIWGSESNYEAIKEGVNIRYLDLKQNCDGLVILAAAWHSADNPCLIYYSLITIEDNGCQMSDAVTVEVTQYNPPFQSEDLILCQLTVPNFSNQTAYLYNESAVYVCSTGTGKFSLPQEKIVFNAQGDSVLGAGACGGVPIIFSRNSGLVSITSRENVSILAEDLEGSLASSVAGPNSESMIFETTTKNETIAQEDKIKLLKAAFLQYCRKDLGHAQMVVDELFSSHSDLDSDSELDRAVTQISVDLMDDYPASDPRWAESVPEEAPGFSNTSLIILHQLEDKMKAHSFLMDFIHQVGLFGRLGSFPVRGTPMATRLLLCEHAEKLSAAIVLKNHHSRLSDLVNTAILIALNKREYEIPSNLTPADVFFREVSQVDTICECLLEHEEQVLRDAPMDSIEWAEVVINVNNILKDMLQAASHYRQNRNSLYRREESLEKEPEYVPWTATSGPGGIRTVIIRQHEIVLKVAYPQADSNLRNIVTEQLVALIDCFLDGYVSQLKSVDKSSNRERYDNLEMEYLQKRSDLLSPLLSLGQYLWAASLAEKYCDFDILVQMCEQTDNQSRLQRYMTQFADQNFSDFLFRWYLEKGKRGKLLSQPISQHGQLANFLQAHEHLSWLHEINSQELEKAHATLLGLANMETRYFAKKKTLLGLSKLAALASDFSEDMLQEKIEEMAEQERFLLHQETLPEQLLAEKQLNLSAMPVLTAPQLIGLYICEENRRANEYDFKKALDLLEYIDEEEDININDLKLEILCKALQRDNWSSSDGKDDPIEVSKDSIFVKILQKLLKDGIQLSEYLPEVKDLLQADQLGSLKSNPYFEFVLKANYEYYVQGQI
UniProt Q92636: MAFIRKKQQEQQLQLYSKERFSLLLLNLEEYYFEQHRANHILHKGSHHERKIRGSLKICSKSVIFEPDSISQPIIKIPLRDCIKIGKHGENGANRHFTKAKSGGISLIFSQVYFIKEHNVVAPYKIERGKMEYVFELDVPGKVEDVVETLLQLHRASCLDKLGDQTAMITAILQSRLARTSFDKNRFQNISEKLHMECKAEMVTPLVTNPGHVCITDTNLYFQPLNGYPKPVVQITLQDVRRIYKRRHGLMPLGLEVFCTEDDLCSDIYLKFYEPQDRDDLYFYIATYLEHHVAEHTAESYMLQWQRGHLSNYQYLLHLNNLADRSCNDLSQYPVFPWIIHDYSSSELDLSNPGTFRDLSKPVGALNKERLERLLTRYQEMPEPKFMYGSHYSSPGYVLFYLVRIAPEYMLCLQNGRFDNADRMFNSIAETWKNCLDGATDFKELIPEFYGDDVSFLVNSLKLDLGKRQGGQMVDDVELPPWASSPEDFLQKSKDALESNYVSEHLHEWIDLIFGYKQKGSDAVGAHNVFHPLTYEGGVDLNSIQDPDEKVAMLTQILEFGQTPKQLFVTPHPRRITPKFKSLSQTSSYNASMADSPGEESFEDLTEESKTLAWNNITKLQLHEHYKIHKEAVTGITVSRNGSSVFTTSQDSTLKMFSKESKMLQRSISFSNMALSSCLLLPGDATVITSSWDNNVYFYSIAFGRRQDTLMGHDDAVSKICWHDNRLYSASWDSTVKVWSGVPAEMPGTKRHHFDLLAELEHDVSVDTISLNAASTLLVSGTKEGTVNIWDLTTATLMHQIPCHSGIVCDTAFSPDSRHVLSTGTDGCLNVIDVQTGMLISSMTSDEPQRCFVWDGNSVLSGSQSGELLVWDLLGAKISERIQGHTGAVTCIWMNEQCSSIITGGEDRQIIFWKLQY
UniProt Q8TEA1: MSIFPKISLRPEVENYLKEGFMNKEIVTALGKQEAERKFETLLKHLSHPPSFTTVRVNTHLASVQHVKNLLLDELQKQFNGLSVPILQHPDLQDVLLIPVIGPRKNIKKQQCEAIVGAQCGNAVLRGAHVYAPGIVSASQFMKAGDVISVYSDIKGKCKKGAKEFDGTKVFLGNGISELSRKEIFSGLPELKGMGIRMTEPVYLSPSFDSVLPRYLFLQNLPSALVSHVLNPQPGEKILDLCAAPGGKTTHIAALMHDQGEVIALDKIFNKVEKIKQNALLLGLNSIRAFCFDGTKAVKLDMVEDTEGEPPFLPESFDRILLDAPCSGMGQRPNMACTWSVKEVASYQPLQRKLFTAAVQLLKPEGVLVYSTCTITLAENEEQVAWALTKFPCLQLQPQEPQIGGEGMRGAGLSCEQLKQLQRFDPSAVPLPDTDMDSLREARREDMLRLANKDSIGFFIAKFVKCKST
UniProt Q15738: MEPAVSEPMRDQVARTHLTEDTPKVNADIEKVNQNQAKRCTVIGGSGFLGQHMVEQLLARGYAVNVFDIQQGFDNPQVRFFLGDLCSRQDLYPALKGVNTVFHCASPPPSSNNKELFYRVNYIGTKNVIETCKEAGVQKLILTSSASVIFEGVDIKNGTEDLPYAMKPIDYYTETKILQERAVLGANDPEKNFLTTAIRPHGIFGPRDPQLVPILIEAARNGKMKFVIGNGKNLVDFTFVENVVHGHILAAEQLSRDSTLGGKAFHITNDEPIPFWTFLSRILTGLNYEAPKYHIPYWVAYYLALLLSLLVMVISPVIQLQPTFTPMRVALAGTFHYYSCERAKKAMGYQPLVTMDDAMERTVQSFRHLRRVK
UniProt O75607: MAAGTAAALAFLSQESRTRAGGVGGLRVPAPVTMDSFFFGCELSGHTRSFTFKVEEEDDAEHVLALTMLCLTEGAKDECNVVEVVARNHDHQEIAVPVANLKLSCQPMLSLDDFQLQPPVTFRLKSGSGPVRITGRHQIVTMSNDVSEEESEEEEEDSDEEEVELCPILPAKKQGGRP
UniProt Q14978: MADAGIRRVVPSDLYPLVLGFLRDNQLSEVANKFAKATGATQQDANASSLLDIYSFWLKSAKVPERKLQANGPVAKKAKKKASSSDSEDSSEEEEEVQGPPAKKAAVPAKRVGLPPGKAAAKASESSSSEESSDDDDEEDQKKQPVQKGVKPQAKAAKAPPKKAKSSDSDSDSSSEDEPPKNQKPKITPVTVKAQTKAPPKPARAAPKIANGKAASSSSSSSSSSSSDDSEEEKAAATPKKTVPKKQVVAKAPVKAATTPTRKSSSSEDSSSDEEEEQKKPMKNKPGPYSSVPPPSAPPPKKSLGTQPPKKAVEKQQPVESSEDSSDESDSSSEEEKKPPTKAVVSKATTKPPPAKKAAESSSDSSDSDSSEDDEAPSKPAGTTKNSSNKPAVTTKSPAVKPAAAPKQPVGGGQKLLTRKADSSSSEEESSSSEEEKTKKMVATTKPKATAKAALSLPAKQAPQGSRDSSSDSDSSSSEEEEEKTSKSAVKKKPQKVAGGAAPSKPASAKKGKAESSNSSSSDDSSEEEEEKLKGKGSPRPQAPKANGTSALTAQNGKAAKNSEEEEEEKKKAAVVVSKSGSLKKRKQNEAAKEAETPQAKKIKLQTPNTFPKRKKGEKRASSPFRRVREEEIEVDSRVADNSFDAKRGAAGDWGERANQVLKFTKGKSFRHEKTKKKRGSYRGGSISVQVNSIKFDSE
UniProt Q7Z417: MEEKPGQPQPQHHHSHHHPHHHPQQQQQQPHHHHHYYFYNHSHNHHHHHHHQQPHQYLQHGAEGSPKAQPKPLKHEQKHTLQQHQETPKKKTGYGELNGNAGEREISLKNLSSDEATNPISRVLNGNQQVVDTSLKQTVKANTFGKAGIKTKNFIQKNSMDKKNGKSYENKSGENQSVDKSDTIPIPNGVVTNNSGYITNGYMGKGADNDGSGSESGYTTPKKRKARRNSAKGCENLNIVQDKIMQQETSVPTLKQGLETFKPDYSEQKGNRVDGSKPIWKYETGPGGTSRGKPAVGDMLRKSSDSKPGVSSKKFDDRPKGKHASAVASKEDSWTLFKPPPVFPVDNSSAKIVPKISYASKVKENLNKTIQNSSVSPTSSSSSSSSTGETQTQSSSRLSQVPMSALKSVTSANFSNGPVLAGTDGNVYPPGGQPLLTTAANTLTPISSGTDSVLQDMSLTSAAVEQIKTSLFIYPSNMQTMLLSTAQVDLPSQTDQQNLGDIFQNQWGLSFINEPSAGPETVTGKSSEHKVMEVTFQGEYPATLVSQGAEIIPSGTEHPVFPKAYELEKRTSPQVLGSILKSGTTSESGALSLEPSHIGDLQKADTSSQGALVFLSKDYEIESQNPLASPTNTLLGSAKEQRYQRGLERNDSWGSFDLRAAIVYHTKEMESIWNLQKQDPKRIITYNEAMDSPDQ
UniProt Q8NC60: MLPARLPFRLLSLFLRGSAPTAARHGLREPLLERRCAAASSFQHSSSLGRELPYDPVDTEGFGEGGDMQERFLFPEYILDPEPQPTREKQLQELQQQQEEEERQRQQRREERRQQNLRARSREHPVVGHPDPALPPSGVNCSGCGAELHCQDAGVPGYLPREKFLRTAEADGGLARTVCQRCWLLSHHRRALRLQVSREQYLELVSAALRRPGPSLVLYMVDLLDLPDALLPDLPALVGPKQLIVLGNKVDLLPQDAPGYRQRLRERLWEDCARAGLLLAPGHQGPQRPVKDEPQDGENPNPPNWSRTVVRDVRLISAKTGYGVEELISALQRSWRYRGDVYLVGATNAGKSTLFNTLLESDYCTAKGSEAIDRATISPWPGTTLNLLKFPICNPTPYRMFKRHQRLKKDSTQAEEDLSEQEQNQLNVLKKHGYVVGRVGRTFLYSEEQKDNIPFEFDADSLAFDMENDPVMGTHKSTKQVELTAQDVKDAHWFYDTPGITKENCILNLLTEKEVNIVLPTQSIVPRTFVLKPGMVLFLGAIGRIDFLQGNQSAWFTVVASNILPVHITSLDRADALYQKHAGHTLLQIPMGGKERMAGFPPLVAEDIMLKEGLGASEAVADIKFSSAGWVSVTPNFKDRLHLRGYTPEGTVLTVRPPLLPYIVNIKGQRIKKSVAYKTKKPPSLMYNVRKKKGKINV
UniProt Q9UMY1: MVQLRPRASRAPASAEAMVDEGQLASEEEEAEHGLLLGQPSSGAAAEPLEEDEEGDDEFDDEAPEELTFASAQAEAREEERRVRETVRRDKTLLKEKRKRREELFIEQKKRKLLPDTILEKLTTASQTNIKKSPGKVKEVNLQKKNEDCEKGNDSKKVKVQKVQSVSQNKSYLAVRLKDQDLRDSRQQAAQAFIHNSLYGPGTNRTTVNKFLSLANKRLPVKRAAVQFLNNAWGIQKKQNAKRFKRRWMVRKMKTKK
UniProt Q9Y639: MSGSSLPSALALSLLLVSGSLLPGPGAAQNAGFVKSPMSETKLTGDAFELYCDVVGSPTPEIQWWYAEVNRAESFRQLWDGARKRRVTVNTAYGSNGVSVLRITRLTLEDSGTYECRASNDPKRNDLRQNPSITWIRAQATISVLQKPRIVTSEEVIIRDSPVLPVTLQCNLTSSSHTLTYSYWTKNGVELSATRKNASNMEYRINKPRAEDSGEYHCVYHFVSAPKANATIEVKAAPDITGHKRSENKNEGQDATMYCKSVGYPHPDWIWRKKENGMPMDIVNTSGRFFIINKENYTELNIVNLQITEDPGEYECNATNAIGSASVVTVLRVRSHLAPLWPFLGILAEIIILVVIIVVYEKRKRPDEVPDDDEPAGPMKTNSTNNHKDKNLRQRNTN
UniProt O43809, whole entry, looked up: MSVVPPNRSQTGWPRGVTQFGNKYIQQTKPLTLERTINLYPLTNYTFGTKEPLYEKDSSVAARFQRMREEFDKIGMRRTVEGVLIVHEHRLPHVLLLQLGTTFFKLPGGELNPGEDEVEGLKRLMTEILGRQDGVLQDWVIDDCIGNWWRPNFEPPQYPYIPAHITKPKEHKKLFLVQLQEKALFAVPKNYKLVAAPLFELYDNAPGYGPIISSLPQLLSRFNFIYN
UniProt Q9HAN9, whole entry, looked up: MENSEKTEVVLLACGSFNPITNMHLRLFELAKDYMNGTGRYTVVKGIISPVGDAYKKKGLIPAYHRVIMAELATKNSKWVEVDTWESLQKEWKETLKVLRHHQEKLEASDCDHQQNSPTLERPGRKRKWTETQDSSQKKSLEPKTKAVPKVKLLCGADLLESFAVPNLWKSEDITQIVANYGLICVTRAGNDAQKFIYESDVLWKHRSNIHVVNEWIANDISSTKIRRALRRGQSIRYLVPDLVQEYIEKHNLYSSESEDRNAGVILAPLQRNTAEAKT

[2] = compound: CCCS(=O)(=O)Nc1ccc(F)c(C(=O)c2c[nH]c3ncc(Cl)cc23)c1F
Method in brief: as §1

[3] = compound: CCN(CCCOc1ccc2c(Nc3cc(CC(=O)Nc4cccc(F)c4)[nH]n3)ncnc2c1)CCOP(=O)(O)O [barasertib]
Method in brief: as §1

[4] = compound: CC[C@@H]1C(=O)N(C)c2cnc(Nc3ccc(C(=O)NC4CCN(C)CC4)cc3OC)nc2N1C1CCCC1
Method in brief: as §1

[5] = compound: CC[C@@H]1C(=O)N(C)c2cnc(Nc3ccc(C(=O)N[C@H]4CC[C@H](N5CCN(CC6CC6)CC5)CC4)cc3OC)nc2N1C(C)C [volasertib]
Method in brief: as §1

[6] = compound: CCn1c(C(=O)N(C2CC2)C2CC2)cc2c3c(ncn3C)c(Nc3cc(C)n(C)n3)nc21
Method in brief: as §1

[7] = compound: CCn1cc(-c2ccnc3[nH]c(-c4cccc(CN(C)C)c4)cc23)c(-c2ccc(NC(=O)N(C)C)cc2)n1
Method in brief: as §1

[8] = compound: CN1CCC(CNc2ccc3ncc(-c4cccc(OC(F)(F)F)c4)n3n2)CC1
Method in brief: as §1

[9] = compound: CN1CCN(CCOc2cc(OC3CCOCC3)c3c(Nc4c(Cl)ccc5c4OCO5)ncnc3c2)CC1 [saracatinib]
Method in brief: as §1

[10] = compound: CN1CCN(c2nc(C3=C(c4c[nH]c5ccccc45)C(=O)NC3=O)c3ccccc3n2)CC1 [sotrastaurin]
Method in brief: as §1

[11] = compound: CN1CC[C@H](c2c(O)cc(O)c3c(=O)cc(-c4ccccc4Cl)oc23)[C@H](O)C1 [alvocidib]
Method in brief: as §1

[12] = compound: CN1CCc2c(c3ccccc3n2Cc2ccc(C(=O)NO)cc2)C1 [Tubastatin A]
Method in brief: as §1

[13] = compound: CNC(=O)C1=CC=CC=C1NC2=NC(=NC=C2Cl)NC3=C(C=C(C=C3)N4CCOCC4)OC
Method in brief: as §1

[14] = compound: CNC(=O)c1ccc(Nc2ncc(C(F)(F)F)c(NCc3nccnc3N(C)S(C)(=O)=O)n2)cc1 [defactinib]
Method in brief: as §1

[15] = compound: CNc1nc(-c2ccc3c(N)n[nH]c3c2)cc(N2C[C@@H](C(=O)NC3CCCCC3)CC[C@H]2C)n1
Method in brief: as §1

[16] = compound: COC(=O)N[C@@H](C)CNc1nccc(-c2cn(C(C)C)nc2-c2cc(Cl)cc(NS(C)(=O)=O)c2F)n1 [encorafenib]
Method in brief: as §1

[17] = compound: COC(=O)[C@H](CCSC)NC(=O)C1=C(C=C(C=C1)NC[C@H](CS)N)C2=CC=CC=C2
Method in brief: as §1

[18] = compound: COc1cc(Nc2ncc3c(n2)-c2ccc(Cl)cc2C(c2c(F)cccc2OC)=NC3)ccc1C(=O)O [alisertib]
Method in brief: as §1

[19] = compound: COc1cc2nc(-c3cc(F)ccc3O)nc(N[C@@H]3CNC[C@H]3C(C)(C)O)c2cc1OC
Method in brief: as §1

[20] = compound: COc1cc2ncnc(Nc3ccc(F)c(Cl)c3)c2cc1OCCCN1CCOCC1 [gefitinib]
Method in brief: as §1

Measured: log2 fold change

NUDT16L1 (UniProt Q9BRJ7)
inactive: [1] -0.02 | [2] 0.004 | [3] 0.01 | [4] -0.006 | [5] -0.027 | [6] 0.01 | [7] -0.04 | [8] 0.028 | [9] -0.042 | [10] -0.026 | [11] -0.044 | [12] 0.049 | [13] -0.015 | [14] 0.038 | [15] -0.002 | [16] 0.021 | [17] -0.075 | [18] 0.002 | [19] -0.012 | [20] -0.013

NRBP1 (UniProt Q9UHY1)
inactive: [1] 0.011 | [2] 0.017 | [3] 0.016 | [4] 0.025 | [5] -0.005 | [6] -0.053 | [7] -0.042 | [8] 0.086 | [9] 0.016 | [10] 0.02 | [11] -0.022 | [12] 0.018 | [13] 0.011 | [14] -0.046 | [15] 0.01 | [16] -0.026 | [17] 0.038 | [18] 0.003 | [19] 0.03 | [20] -0.005

NUP133 (UniProt Q8WUM0)
inactive: [1] 0.009 | [2] 0.014 | [3] 0.01 | [4] -0.028 | [5] -0.081 | [6] 0.05 | [7] -0.047 | [8] 0.04 | [9] 0.014 | [10] 0.038 | [11] -0.08 | [12] -0.111 | [13] -0.007 | [14] 0.035 | [15] -0.028 | [16] 0.039 | [17] 0.002 | [18] -0.009 | [19] 0.011 | [20] -0.003

NSMAF (UniProt Q92636)
inactive: [1] 0.002 | [2] 0.007 | [3] 0.015 | [4] 0.012 | [5] 0.001 | [6] -0.066 | [7] 0.002 | [8] 0.053 | [9] 0.022 | [10] 0.025 | [11] 0.009 | [12] 0.015 | [13] -0.015 | [14] 0.094 | [15] -0.014 | [16] 0.023 | [17] -0.029 | [18] -0.015 | [19] 0.012 | [20] 0.028

NSUN6 (UniProt Q8TEA1)
inactive: [1] 0.039 | [2] 0.015 | [3] 0.044 | [4] -0.031 | [5] 0.017 | [6] -0.025 | [7] -0.022 | [8] 0.009 | [9] -0.007 | [10] -0.023 | [11] 0.004 | [12] -0.013 | [13] 0.039 | [14] -0.003 | [15] 0.032 | [16] 0.002 | [17] 0.023 | [18] 0.004 | [19] 0.048 | [20] -0.009

NSDHL (UniProt Q15738)
inactive: [1] 0.041 | [2] 0.001 | [3] 0.02 | [4] 0.074 | [5] 0.013 | [6] -0.022 | [7] -0.073 | [8] 0.033 | [9] -0.014 | [10] -0.011 | [11] 0.003 | [12] 0.018 | [13] -0.004 | [14] -0.05 | [15] -0.005 | [16] -0.005 | [17] 0 | [18] 0.084 | [19] -0.068 | [20] -0.001

NPM3 (UniProt O75607)
inactive: [1] 0.052 | [2] 0.03 | [3] -0.065 | [4] 0.058 | [5] -0.015 | [6] -0.007 | [8] 0.158 | [9] -0.023 | [10] 0.025 | [11] -0.04 | [12] 0.015 | [13] -0.017 | [14] 0.062 | [15] 0.011 | [16] 0.012 | [17] 0.028 | [18] -0.002 | [19] 0.023 | [20] -0.015
active: [7] -0.376

NRBF2 (UniProt Q96F24)
inactive: [1] -0.008 | [2] 0.038 | [3] 0.022 | [4] 0.031 | [5] -0.021 | [6] 0.045 | [7] -0.023 | [8] -0.023 | [9] -0.008 | [10] -0.005 | [11] 0.014 | [12] -0.08 | [13] 0.044 | [14] -0.036 | [15] -0.004 | [16] 0.076 | [17] -0.087 | [18] -0.015 | [19] -0.01 | [20] 0.017

NOLC1 isoform 2 (UniProt Q14978)
inactive: [1] -0.012 | [2] 0.009 | [3] 0.01 | [4] -0.027 | [5] 0.019 | [6] 0 | [7] -0.066 | [8] 0.027 | [9] -0.009 | [10] -0.034 | [11] -0.035 | [12] 0.059 | [13] -0.018 | [14] -0.01 | [15] 0.04 | [16] 0.007 | [17] -0.021 | [18] 0 | [19] 0.041 | [20] 0.006

NUFIP2 (UniProt Q7Z417)
inactive: [1] -0.019 | [2] 0.036 | [3] -0.04 | [4] 0.04 | [5] -0.002 | [6] 0.032 | [7] -0.026 | [8] 0.02 | [9] 0.007 | [10] 0.022 | [11] 0.002 | [12] 0.008 | [13] 0.022 | [14] 0.085 | [15] 0.053 | [16] 0.043 | [17] 0.023 | [18] -0.015 | [19] 0.009 | [20] 0.001

NOA1 (UniProt Q8NC60)
inactive: [1] 0.041 | [2] -0.009 | [3] 0.043 | [4] 0.029 | [5] -0.024 | [6] -0.083 | [7] -0.229 | [8] 0.028 | [9] 0.016 | [10] 0.037 | [11] -0.016 | [12] -0.11 | [13] 0.063 | [14] -0.076 | [15] 0.063 | [16] -0.049 | [17] -0.023 | [18] 0.039 | [19] 0.023 | [20] -0.042

NOL7 (UniProt Q9UMY1)
inactive: [1] -0.016 | [2] -0.044 | [3] -0.004 | [4] 0.014 | [5] 0.02 | [6] 0.004 | [7] 0.123 | [8] -0.108 | [9] -0.053 | [10] 0.023 | [11] 0.08 | [12] -0.01 | [13] 0.018 | [14] -0.023 | [15] 0.093 | [16] 0.051 | [17] 0.018 | [18] 0.011 | [19] -0.037 | [20] 0.047

NPTN (UniProt Q9Y639)
inactive: [1] -0.028 | [2] -0.042 | [3] 0.007 | [4] 0.032 | [5] -0.038 | [6] -0.017 | [7] -0.019 | [8] 0.052 | [9] 0.02 | [10] -0.016 | [11] -0.023 | [12] -0.01 | [13] 0 | [14] -0.185 | [15] 0.03 | [16] -0.023 | [17] 0.015 | [18] 0.011 | [19] 0.042 | [20] 0.024

NUF2 (UniProt Q9BZD4)
active: [17] 0.264
inactive: [1] -0.01 | [2] 0.016 | [3] 0.048 | [4] -0.126 | [5] -0.029 | [6] 0.016 | [7] -0.069 | [8] -0.101 | [9] 0.032 | [10] 0.03 | [11] 0 | [12] -0.13 | [13] 0.03 | [14] 0.021 | [15] -0.007 | [16] 0.027 | [18] -0.012 | [19] 0.013 | [20] -0.033

Looked up one by one from the entries so far, two records:
NPTN (UniProt Q9Y639)
inactive: [1] -0.028 | [2] -0.042 | [3] 0.007 | [4] 0.032 | [5] -0.038 | [6] -0.017 | [7] -0.019 | [8] 0.052 | [9] 0.02 | [10] -0.016 | [11] -0.023 | [12] -0.01 | [13] 0 | [14] -0.185 | [15] 0.03 | [16] -0.023 | [17] 0.015 | [18] 0.011 | [19] 0.042 | [20] 0.024

NOA1 (UniProt Q8NC60)
inactive: [1] 0.041 | [2] -0.009 | [3] 0.043 | [4] 0.029 | [5] -0.024 | [6] -0.083 | [7] -0.229 | [8] 0.028 | [9] 0.016 | [10] 0.037 | [11] -0.016 | [12] -0.11 | [13] 0.063 | [14] -0.076 | [15] 0.063 | [16] -0.049 | [17] -0.023 | [18] 0.039 | [19] 0.023 | [20] -0.042

Remaining list, next part:

NUDT21 (UniProt O43809)
inactive: [1] -0.013 | [2] -0.048 | [3] 0.037 | [4] 0.015 | [5] 0.01 | [6] -0.001 | [7] 0.113 | [8] 0.028 | [9] -0.012 | [10] -0.029 | [11] -0.027 | [12] 0.044 | [13] -0.055 | [14] -0.022 | [15] 0.003 | [16] 0.043 | [17] -0.007 | [18] 0 | [19] 0.002 | [20] -0.03

NMNAT1 (UniProt Q9HAN9)
inactive: [1] 0.064 | [2] 0.023 | [3] -0.011 | [4] -0.026 | [5] -0.003 | [6] 0 | [7] 0.037 | [8] -0.009 | [9] 0.001 | [10] 0.019 | [11] 0.037 | [12] -0.021 | [13] 0.011 | [14] -0.027 | [15] -0.001 | [16] 0.011 | [17] 0.124 | [18] 0.012 | [19] 0.002 | [20] 0.074
